For the assay, the system named is HEK293A TEAD-LUC reporter. The assay is described as follows: TEAD-luciferase reporter activity (YAP activation), robust Z score vs plate; higher = stronger YAP/TEAD activation. The conditions noted are these: 24 h.

Each structure is given as a SMILES string. Where a name gives a salt, the structure may show the parent alone. This is one part of the list. This data set is noisy: repeats of one test often differ as much as different tests do.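 The human kidney-derived cells carry a stably integrated construct of eight TEAD-binding elements driving luciferase, read by luminescence in a drug-repurposing library screen. A compound counts as a hit when its signal is more than five robust Z scores above the plate mean.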

Turning to `COc1ccc([C@@H](O)[C@@H](N)c2ccccc2)cc1`, the TEAD-luciferase reporter activity (compound concentration: 200 nM) was inactive: -2.11, the TEAD-luciferase reporter activity (compound concentration: 2 uM) is inactive: -1.3 and the TEAD-luciferase reporter activity (compound concentration: 10 uM) was inactive: 1.21.
In the same order, the values of `COc1ccc(C[C@@H](C)NC[C@H](O)c2ccc(O)c3nc(O)ccc23)cc1` [Carmoterol] are inactive: 0.134, inactive: -1.14 and inactive: -2.65.
In the same order, the values of `CC(C)(O)C(=O)Nc1ccc([N+](=O)[O-])c(C(F)(F)F)c1` [2-Hydroxyflutamide] are inactive: 0.768, inactive: -1.61 and inactive: 3.13.
`Cc1cc(O)cc(C)c1C[C@H](NC(=O)[C@H](N)CCCNC(=N)N)C(=O)N[C@@H](CCCCN)C(=O)N[C@@H](Cc1ccccc1)C(N)=O` [Elamipretide]: the TEAD-luciferase reporter activity (compound concentration: 200 nM) was inactive: -1.15, the TEAD-luciferase reporter activity (compound concentration: 2 uM) was inactive: 1.09 and the TEAD-luciferase reporter activity (compound concentration: 10 uM) was inactive: -1.44.
Regarding `CC(C)(N)CC12CC3CC(CC(C3)C1)C2` [somantadine], the TEAD-luciferase reporter activity reads like this: (compound concentration: 200 nM) inactive: 0.463; (compound concentration: 2 uM) inactive: -1.12; (compound concentration: 10 uM) inactive: -1.77.
As for `CNC1CCc2[nH]c3ccccc3c2C1` (stereo unspecified), the TEAD-luciferase reporter activity (compound concentration: 200 nM) was inactive: 1.5, the TEAD-luciferase reporter activity (compound concentration: 2 uM) was inactive: -0.182 and the TEAD-luciferase reporter activity (compound concentration: 10 uM) was inactive: -0.893.
On to `Cc1cc(C2CCCN2)on1` (stereo unspecified), for which the TEAD-luciferase reporter activity runs as follows: (compound concentration: 200 nM) inactive: -0.986; (compound concentration: 2 uM) inactive: 1.24; (compound concentration: 10 uM) inactive: -2.1.
As to `CN1CC2CCCC(C1)C2OC(=O)C(O)(c1ccccc1)C1CCCC1` [L-Phencynonate hydrochloride], the TEAD-luciferase reporter activity (compound concentration: 200 nM) is inactive: -0.506, the TEAD-luciferase reporter activity (compound concentration: 2 uM) is inactive: -2.52 and the TEAD-luciferase reporter activity (compound concentration: 10 uM) is inactive: 2.53.
For the compound `CNCC12CCC(c3ccccc31)c1ccccc12` [benzoctamine], the TEAD-luciferase reporter activity is inactive: -0.0191 (compound concentration: 200 nM), inactive: 0.736 (compound concentration: 2 uM) and inactive: 2.28 (compound concentration: 10 uM).
In the case of `CC1=C2[C@H]3OC(=O)[C@@H](C)[C@@H]3CC[C@@]2(C)C=CC1=O`, the TEAD-luciferase reporter activity is inactive: -0.59 (compound concentration: 200 nM), inactive: 0.0159 (compound concentration: 2 uM) and inactive: 2.34 (compound concentration: 10 uM).
`CCCN(CCCCN1CCNCCC1=O)C(C)Cc1ccc(S(C)(=O)=O)cc1` (stereo unspecified): the TEAD-luciferase reporter activity was inactive: -0.942 (compound concentration: 200 nM), inactive: -0.521 (compound concentration: 2 uM) and inactive: 2.57 (compound concentration: 10 uM).
In the same order, the values of `C[C@@H](NC(=O)[C@@H](N)Cc1ccc(O)cc1)C(=O)N[C@@H](Cc1ccc(F)cc1)C(=O)N[C@@H](Cc1ccccc1)C(N)=O` are inactive: -0.89, inactive: -1.11 and inactive: -0.673.
Consider `OC(c1ccccc1)(c1ccccc1)C1CN2CCC1CC2` (stereo unspecified), for which the TEAD-luciferase reporter activity (compound concentration: 200 nM) is inactive: -0.877, the TEAD-luciferase reporter activity (compound concentration: 2 uM) is inactive: 4.14 and the TEAD-luciferase reporter activity (compound concentration: 10 uM) was inactive: 1.02.
Turning to `CC1(C)C(=O)N(c2ccc(C#N)c(C(F)(F)F)c2F)C(=S)N1c1ccc(CCCc2ncco2)nc1` [Proxalutamide], the TEAD-luciferase reporter activity is inactive: 0.737 (compound concentration: 200 nM), inactive: 0.692 (compound concentration: 2 uM) and inactive: -0.17 (compound concentration: 10 uM).
Take `O=C(C1CCCN1S(=O)(=O)c1ccccc1)N1CCC(N2CCCC2=O)CC1` (stereo unspecified): the TEAD-luciferase reporter activity (compound concentration: 200 nM) was inactive: -1.78.
For `C[C@H](N)[C@H](O)c1ccc(O)c(O)c1`, the TEAD-luciferase reporter activity by setting is: (compound concentration: 200 nM) inactive: -1.46; (compound concentration: 2 uM) inactive: -1.24; (compound concentration: 10 uM) inactive: -1.7.
As for `CC(=O)[C@H]1CC[C@H]2[C@@H]3CCC4C[C@](C)(O)CC[C@]4(C)[C@H]3CC[C@]12C` (stereo partly specified) [Ganaxolone], the TEAD-luciferase reporter activity is inactive: 0.627 (compound concentration: 200 nM), inactive: 0.138 (compound concentration: 2 uM) and inactive: -0.122 (compound concentration: 10 uM).
For the compound `N[C@H]1C[C@@H](C(=O)O)CC1=C(F)F`, the TEAD-luciferase reporter activity is inactive: -2.43 (compound concentration: 200 nM), inactive: -1.7 (compound concentration: 2 uM) and inactive: 0.618 (compound concentration: 10 uM).
With `CSCCC1NC(=O)C(CC(C)C)NC(=O)C(CCCNC(=N)N)NC(=O)C(CO)NC(=O)C2CSSCC3NC(=O)C(CO)NC(=O)CNC(=O)C(C(C)O)NC(=O)C(CSSCC(N)C(=O)NC(CCCCN)C(=O)NCC(=O)NC(CCCCN)C(=O)NCC(=O)NC(C)C(=O)NC(CCCCN)C(=O)N2)NC(=O)C(CSSCC(C(N)=O)NC(=O)C(CCCCN)NC(=O)CNC(=O)C(CO)NC(=O)C(CCCNC(=N)N)NC3=O)NC(=O)C(CC(=O)O)NC(=O)C(Cc2ccc(O)cc2)NC1=O` (stereo unspecified) [Ziconotide], the TEAD-luciferase reporter activity is, setting by setting: (compound concentration: 200 nM) inactive: -1.26; (compound concentration: 2 uM) inactive: -1.34; (compound concentration: 10 uM) inactive: -0.525.
In the same order, the values of `CCOC(=O)C1N=C(c2ccccc2Cl)c2cc(Cl)ccc2NC1=O` (stereo unspecified) [ethyl dirazepate] are inactive: 0.661, inactive: -1.31 and inactive: -1.04.
Consider `S=C(NC1CCCCC1)N1CCC(c2c[nH]cn2)CC1` [Thioperamide maleate], for which the TEAD-luciferase reporter activity was inactive: 2.68 (compound concentration: 200 nM) and inactive: 2 (compound concentration: 10 uM).
Consider `S=C(NC1CCCCC1)N1CCC(c2c[nH]cn2)CC1`, for which, where the note is “compound concentration: 2 uM”, the TEAD-luciferase reporter activity is inactive: -1.71.
As for `CCNC(=O)C1OC(n2cnc3c(N)ncnc32)C(O)C1O` (stereo unspecified), the TEAD-luciferase reporter activity is inactive: -1.27 (compound concentration: 200 nM), inactive: -1.26 (compound concentration: 2 uM) and inactive: -0.442 (compound concentration: 10 uM).
In the same order, the values of `CCC[C@@H](C)C[C@H](N)CC(=O)O` are inactive: -0.617, inactive: -1 and inactive: 0.0383.
Take `CC(C)NC(=O)N1CNC(=O)C12CCN(C(=O)CN)CC2`: the TEAD-luciferase reporter activity (compound concentration: 200 nM) was inactive: 1.29 and the TEAD-luciferase reporter activity (compound concentration: 10 uM) is inactive: -0.541.
Consider `C#CCCN1CCC2(O)c3cc(O)ccc3CC1C2(C)C` (stereo unspecified) [butinazocine], for which the TEAD-luciferase reporter activity is inactive: 1.62 (compound concentration: 200 nM), inactive: 0.131 (compound concentration: 2 uM) and inactive: 1.29 (compound concentration: 10 uM).
In the same order, the values of `N#C[C@H](O[C@@H]1O[C@H](CO[C@@H]2O[C@H](CO)[C@@H](O)[C@H](O)[C@H]2O)[C@@H](O)[C@H](O)[C@H]1O)c1ccccc1` [Amygdalin] are inactive: -1.06, inactive: -0.31 and inactive: 1.29.
With `CN1C2CCC1CC(OC1c3ccccc3CCc3ccccc31)C2` (stereo unspecified), the TEAD-luciferase reporter activity runs as follows: (compound concentration: 200 nM) inactive: -0.691; (compound concentration: 2 uM) inactive: -1.21; (compound concentration: 10 uM) inactive: -0.0269.
Turning to `Cc1ccc(C2CC2)c(OCC2=NCCN2)c1`, the TEAD-luciferase reporter activity is, setting by setting: (compound concentration: 200 nM) inactive: -0.472; (compound concentration: 2 uM) inactive: -0.349; (compound concentration: 10 uM) inactive: 1.79.
In the same order, the values of `C[C@]12CC[C@H]3[C@@H](CC[C@@]45O[C@@H]4C(=O)C(C#N)C[C@]35C)[C@@H]1CC[C@@H]2O` (stereo partly specified) [Trilostane] are inactive: -1.15, inactive: -0.328 and inactive: -1.37.
Regarding `Cn1ncnc1COc1nn2c(-c3c(F)cccc3F)nnc2cc1C1CCC1`, the TEAD-luciferase reporter activity runs as follows: (compound concentration: 200 nM) inactive: -0.321; (compound concentration: 2 uM) inactive: 1.74; (compound concentration: 10 uM) inactive: -2.42.
For the compound `CCOC(CNC)c1cccc(C(F)(F)F)c1` (stereo unspecified), the TEAD-luciferase reporter activity (compound concentration: 200 nM) is inactive: -1.54, the TEAD-luciferase reporter activity (compound concentration: 2 uM) is inactive: 2.03 and the TEAD-luciferase reporter activity (compound concentration: 10 uM) is inactive: 2.84.
On to `Fc1ccc([C@@]2(Cn3cncn3)O[C@H]2c2ccccc2Cl)cc1`, for which the TEAD-luciferase reporter activity was active: 5.8 (compound concentration: 200 nM), inactive: -1.32 (compound concentration: 2 uM) and inactive: 0.682 (compound concentration: 10 uM).
In the same order, the values of `CCOC(=O)C(CCN1CCOCC1)(c1ccccc1)c1ccccc1` are inactive: 0.139, inactive: 0.615 and inactive: 0.984.
